PubChem BioAssay AID1259279 | Sanger Institute | 2017

Screen: 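Kinases that colorectal cancer cells need to survive, alone or with drugs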 (primary screen)
System: LS180 human colorectal cancer cells
Knock-down reagent: siRNA pool against human genes
Conditions: anchor drug BYL719 at 1 µM, cetuximab at 5 µg/ml or trametinib at 10 nM, or DMSO vehicle only
Measured: 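Viability as a fraction of non-targeting control and as a replicate-averaged robust z-score, with separate synergy scores for BYL719, cetuximab and trametinib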
Scale: viability z-score, no drug: higher = more viable cells after knock-down; viability, no drug: higher = more viable cells; synergy score with BYL719 and synergy score with cetuximab and synergy score with trametinib: higher = stronger synthetic lethal synergy with drug
Hit rule: 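a knock-down is called active, meaning essential, if its viability z-score in vehicle alone falls below -3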
Calls: active = essential (knock-down alone cuts viability); inactive = no change without drug
Shown is an unselected part of 794 reagents tested. 11 of all reagents (1.4%) were called active. 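Calls reflect knock-down alone in the vehicle arm, not drug synergy.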 Entries without a mark were called inactive. Viability is capped at 1. Not given: the amount of reagent, the time to read-out.

| Gene | viability z-score, no drug | viability, no drug (fraction) | synergy score with BYL719 | synergy score with cetuximab | synergy score with trametinib |
| --- | --- | --- | --- | --- | --- |
| LIMK2 | 0.774 | 0.991 | -0.0715 | -0.167 | -0.0781 |
| CSF1R | -2.21 | 0.665 | 0.0365 | 0.056 | -0.0397 |
| MATK | -1.41 | 0.753 | -0.254 | -0.313 | -0.0849 |
| TRPM7 | -0.556 | 0.846 | -0.242 | -0.203 | -0.219 |
| MAPK7 | 0.387 | 0.948 | -0.111 | -0.209 | -0.0343 |
| NEK8 | -1.41 | 0.753 | -0.0311 | 0.0333 | 0.11 |
| DAPK1 | -0.8 | 0.819 | -0.2 | -0.258 | -0.107 |
| ERBB4 | 0.621 | 0.974 | -0.138 | -0.0836 | -0.0762 |
| RIOK2 | 0.364 | 0.946 | -0.023 | -0.0064 | -0.123 |
| FGFR2 | 0.439 | 0.954 | -0.0256 | -0.0744 | 0.0438 |
| DUSP21 | 0.218 | 0.93 | -0.0479 | -0.0272 | 0.155 |
| TPK1 | 0.153 | 0.923 | -0.0899 | -0.0815 | 0.0707 |
| NUAK1 | 0.11 | 0.918 | -0.0534 | -0.0401 | -0.00391 |
| PRKAG1 | 0.86 | 1 | -0.16 | -0.0747 | -0.118 |
| TESK2 | 0.0901 | 0.916 | -0.121 | -0.189 | -0.21 |
| MOK | 0.86 | 1 | -0.017 | -0.166 | -0.0398 |
| NEK3 | -0.251 | 0.879 | -0.097 | -0.0289 | -0.2 |
| CDC42BPB | 0.86 | 1 | -0.147 | -0.124 | -0.00583 |
| SIK1 | 0.86 | 1 | -0.0949 | -0.0284 | 0.0929 |
| PRKCE | 0.86 | 1 | 0.00204 | 0.0197 | 0.0912 |
| DTYMK | 0.86 | 1 | -0.148 | -0.166 | -0.00487 |
| DYRK2 | 0.86 | 1 | -0.113 | 0.0482 | 0.175 |
| PINK1 | 0.617 | 0.974 | 0.0269 | 0.0508 | 0.0632 |

No new results follow: entries from further up.
| Gene | viability z-score, no drug | viability, no drug (fraction) | synergy score with BYL719 | synergy score with cetuximab | synergy score with trametinib |
| --- | --- | --- | --- | --- | --- |
| MOK | 0.86 | 1 | -0.017 | -0.166 | -0.0398 |
| NEK3 | -0.251 | 0.879 | -0.097 | -0.0289 | -0.2 |
| CDC42BPB | 0.86 | 1 | -0.147 | -0.124 | -0.00583 |
| SIK1 | 0.86 | 1 | -0.0949 | -0.0284 | 0.0929 |
| PRKCE | 0.86 | 1 | 0.00204 | 0.0197 | 0.0912 |
| DTYMK | 0.86 | 1 | -0.148 | -0.166 | -0.00487 |
| DYRK2 | 0.86 | 1 | -0.113 | 0.0482 | 0.175 |

Next records follow:
| Gene | viability z-score, no drug | viability, no drug (fraction) | synergy score with BYL719 | synergy score with cetuximab | synergy score with trametinib |
| --- | --- | --- | --- | --- | --- |
| ATP23 | 0.378 | 0.947 | -0.00334 | -0.12 | 0.05 |
| CNOT1 | 0.314 | 0.94 | 0.122 | 0.127 | 0.226 |
| CDK8 | 0.86 | 1 | -0.094 | -0.166 | -0.0395 |
| VRK2 | -0.788 | 0.82 | -0.0907 | -0.114 | 0.0643 |
| MAP3K12 | 0.0904 | 0.916 | -0.12 | -0.236 | 0.117 |
| PIM1 | 0.86 | 1 | 0.109 | 0.104 | 0.0762 |
| CDK5 | -0.754 | 0.824 | -0.25 | -0.251 | -0.109 |
| TSSK6 | 0.329 | 0.942 | 0.0206 | -0.0999 | 0.0248 |
| ACVR2B | -1.21 | 0.774 | -0.123 | -0.159 | 0.0239 |
| MAP2K1 | 0.86 | 1 | -0.042 | -0.00861 | 0.0711 |
| ABL1 | 0.246 | 0.933 | -0.139 | -0.0492 | -0.0382 |
| NLK | -0.166 | 0.888 | -0.0596 | -0.13 | -0.141 |
| MAPK11 | 0.26 | 0.935 | 0.0266 | -0.0974 | 0.0836 |
| EPHB6 | 0.86 | 1 | -0.157 | -0.166 | 0.0131 |
| EPHA8 | 0.206 | 0.929 | -0.000126 | -0.0442 | 0.0856 |
| PFKFB2 | 0.812 | 0.995 | 0.0873 | 0.0217 | 0.0722 |
| PDGFRA | -0.161 | 0.889 | -0.0297 | -0.249 | 0.0858 |
| TEC | 0.279 | 0.937 | -0.104 | -0.0613 | 0.0749 |
| ERN2 | 0.86 | 1 | -0.0496 | -0.089 | -0.0477 |
| ACO1 | 0.59 | 0.971 | -0.0441 | 0.045 | 0.108 |
| PANK4 | -1.69 | 0.722 | 0.0161 | -0.0545 | 0.0854 |
| MGA | -1.6 | 0.731 | -0.00562 | 0.06 | 0.0873 |
| PI4KB | 0.86 | 1 | 0.0637 | 0.00707 | 0.0942 |
| FN3K | 0.86 | 1 | -0.144 | -0.166 | -0.0446 |
| IP6K3 | -1.17 | 0.779 | -0.00155 | 0.0598 | 0.0296 |
| RPS6KA5 | -0.967 | 0.801 | 0.0181 | -0.0136 | -0.076 |
| STAG2 | 0.86 | 1 | -0.149 | -0.0173 | -0.0234 |
